# Results of single-concentration screens

The chains behind the UniProt entries cited, without tags or fusion partners. Residues count along the entry.
UniProt P9WNZ1, whole entry: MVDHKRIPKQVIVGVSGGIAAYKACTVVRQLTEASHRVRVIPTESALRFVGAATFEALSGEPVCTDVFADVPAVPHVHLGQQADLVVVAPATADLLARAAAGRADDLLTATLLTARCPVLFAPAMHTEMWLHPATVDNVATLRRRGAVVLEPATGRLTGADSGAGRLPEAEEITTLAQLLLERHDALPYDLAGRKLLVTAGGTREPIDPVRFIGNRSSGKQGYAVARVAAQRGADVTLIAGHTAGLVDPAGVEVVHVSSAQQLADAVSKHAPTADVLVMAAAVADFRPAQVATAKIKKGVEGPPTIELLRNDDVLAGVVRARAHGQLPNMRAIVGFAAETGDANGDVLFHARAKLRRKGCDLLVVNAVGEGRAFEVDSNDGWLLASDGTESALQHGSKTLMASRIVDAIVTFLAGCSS
UniProt P9WFT3, whole entry: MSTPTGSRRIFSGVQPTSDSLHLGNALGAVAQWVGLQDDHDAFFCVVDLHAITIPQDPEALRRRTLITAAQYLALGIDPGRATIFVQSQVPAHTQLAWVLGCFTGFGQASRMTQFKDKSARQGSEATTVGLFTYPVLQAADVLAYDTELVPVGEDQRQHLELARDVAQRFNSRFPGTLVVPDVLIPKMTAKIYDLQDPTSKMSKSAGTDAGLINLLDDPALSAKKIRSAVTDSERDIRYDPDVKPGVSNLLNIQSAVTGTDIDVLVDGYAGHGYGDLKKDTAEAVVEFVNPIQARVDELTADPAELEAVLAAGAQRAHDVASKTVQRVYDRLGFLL
UniProt P9WPC5, whole entry: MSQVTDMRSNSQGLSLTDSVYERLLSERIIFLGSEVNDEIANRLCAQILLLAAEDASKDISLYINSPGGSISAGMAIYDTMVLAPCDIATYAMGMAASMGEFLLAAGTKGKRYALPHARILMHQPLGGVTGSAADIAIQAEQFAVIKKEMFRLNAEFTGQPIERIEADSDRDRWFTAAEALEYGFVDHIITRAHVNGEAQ
UniProt P9WPC3, whole entry partner: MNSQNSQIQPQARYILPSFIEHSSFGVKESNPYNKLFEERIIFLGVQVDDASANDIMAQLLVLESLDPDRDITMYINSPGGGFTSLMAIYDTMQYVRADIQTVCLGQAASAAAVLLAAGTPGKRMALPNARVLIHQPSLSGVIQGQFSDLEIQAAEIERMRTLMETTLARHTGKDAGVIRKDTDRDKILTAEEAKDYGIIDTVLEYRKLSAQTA
UniProt A4I591, 1-473: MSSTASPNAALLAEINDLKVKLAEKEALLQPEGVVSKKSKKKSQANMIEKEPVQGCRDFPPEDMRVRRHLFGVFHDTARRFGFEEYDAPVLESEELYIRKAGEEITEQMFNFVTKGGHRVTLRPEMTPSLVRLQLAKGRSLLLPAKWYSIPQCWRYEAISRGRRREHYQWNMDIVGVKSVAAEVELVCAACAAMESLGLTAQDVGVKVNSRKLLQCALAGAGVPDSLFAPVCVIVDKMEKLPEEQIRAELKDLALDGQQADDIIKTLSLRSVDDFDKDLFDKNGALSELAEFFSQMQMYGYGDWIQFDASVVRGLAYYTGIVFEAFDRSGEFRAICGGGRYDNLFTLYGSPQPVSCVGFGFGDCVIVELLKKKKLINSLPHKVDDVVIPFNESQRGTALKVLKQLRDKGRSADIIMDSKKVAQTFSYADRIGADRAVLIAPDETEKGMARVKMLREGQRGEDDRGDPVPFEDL
UniProt Q4DA54, 1-478: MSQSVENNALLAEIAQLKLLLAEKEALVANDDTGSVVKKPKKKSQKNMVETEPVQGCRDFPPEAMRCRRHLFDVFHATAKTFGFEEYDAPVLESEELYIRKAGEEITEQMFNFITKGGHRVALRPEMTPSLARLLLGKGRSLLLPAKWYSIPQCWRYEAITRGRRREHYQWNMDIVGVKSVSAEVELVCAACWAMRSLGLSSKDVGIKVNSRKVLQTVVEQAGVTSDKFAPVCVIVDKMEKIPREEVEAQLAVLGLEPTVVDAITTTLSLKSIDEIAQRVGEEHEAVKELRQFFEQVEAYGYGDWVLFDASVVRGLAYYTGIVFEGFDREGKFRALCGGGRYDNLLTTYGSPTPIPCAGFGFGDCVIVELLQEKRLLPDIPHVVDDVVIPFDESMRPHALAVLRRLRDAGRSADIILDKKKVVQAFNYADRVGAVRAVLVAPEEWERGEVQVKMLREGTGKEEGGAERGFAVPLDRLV

Data taken from ChEMBL document CHEMBL3988442, “University of Dundee, Small-Polar-MMV Screening Library” (2021).

Values are the deposited “Percent Effect”, in %. How 0% and 100% were set is not recorded. Most values in the screen are low, and negative values occur. This is an unselected part of the compounds tested. Two or more numbers in one place are separate tests of the same structure; such repeats can differ widely. A dash means the value is not listed here; it may have been measured.

CoaBC: 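Enzyme assay of CoaBC with a phosphate dye (Biomol Green) read at 650 nm. Target: Coenzyme A biosynthesis protein CoaBC, Mycobacterium tuberculosis (UniProt P9WNZ1). Tested at 30 µM. Higher reads as stronger inhibition, judged from the few compounds that gave an IC50. Most strong results did not repeat in a second test. About 67,000 compounds were tested under these conditions; 0.06% (about 40) showed 50% or more at least once.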
MtTrpRS: 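Enzyme assay of tryptophanyl-tRNA synthetase; the read-out is not stated. Target: Tryptophan-tRNA ligase, Mycobacterium tuberculosis (UniProt P9WFT3). Tested at 10 µM. Direction is not recorded; retested compounds ran higher, which suggests that high means inhibition. Of about 65,000 compounds tested this way, about 64 (0.098%) reached 50% or more in at least one test.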
ClpP1P2: 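Protease assay of ClpP1P2, read by the AMC dye that it sets free. Target: ClpP1P2, Mycobacterium tuberculosis (UniProt P9WPC5 and UniProt P9WPC3). Compounds at 50 µM. Higher reads as stronger inhibition, judged from the few compounds that gave an IC50. Most other retested compounds had strongly negative values. Of about 69,000 compounds tested this way, about 10 (0.015%) reached 50% or more in at least one test.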
LiHisRS: 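Histidine-tRNA ligase, Leishmania infantum (UniProt A4I591). Enzyme assay of histidyl-tRNA synthetase; the read-out is not stated. Compounds at 30 µM. The record gives no direction; compounds that gave an IC50 in retests scored well above the rest, so higher reads as stronger inhibition. The assay is labelled LdHisRS but filed under L. infantum. About 69,000 compounds were tested under these conditions; 0.6% (about 410) showed 50% or more at least once.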
TcHisRS: 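Enzyme assay of histidyl-tRNA synthetase; the read-out is not stated. Target: Histidine-tRNA ligase, Trypanosoma cruzi CL Brener (UniProt Q4DA54). Compounds at 30 µM. Direction is inferred from retests: higher values go with stronger inhibition. Size under these conditions: about 69,000 compounds, about 31 of them at 50% or above in at least one test.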

compound,CoaBC,MtTrpRS,ClpP1P2,LiHisRS,TcHisRS
Cc1nc[nH]c1CN1CCOC(c2ccc(Cl)c(Cl)c2)C1 (stereo not given),-3.736%,-0.2329%,-7.028%,5.714%,13.4%
Cc1nnc2ccc(N3CCC4(CCOC4)C3)nn12 (stereo not given),0.4878%,7.149%,2.247%,14.29%,4.902%
Nc1nc(Cn2ccnc2-c2cc(CN3CCCC3)cs2)cs1,3.922%,2.469%,-3.311%,17.78%,13.1%
CC(C)N(C)Cc1nnc2n1CCCN(c1cnccn1)C2,-1.22%,-,-5.479%,1.887%,2.222%
Cc1ccc(OCCN(C)Cc2ccc(S(=O)(=O)N(C)C)o2)cc1,0.2427%,2.88%,-2.198%,4.762%,4.95%
CN(Cc1n[nH]c(=O)n1Cc1ccco1)S(C)(=O)=O,3.137%,-0.552%,-11.24%,16.95%,3.415%
Cc1cc(C(=O)N2CCCCC2C)ccc1NCCCO (stereo not given),0.4819%,2.478%,15.99%,0%,-1.527%
Cc1nc(N)ncc1C(=O)N1CCCC(CCc2ccc(F)cc2)C1 (stereo not given),2.469%,-5.012%,4.471%,6.993%,3.483%
Cc1ccc2cc(C(=O)N3CCCC3Cn3cccn3)[nH]c2c1 (stereo not given),12.27%,3.374%,-11.96%,-1.786%,2.305%
CCS(=O)(=O)NCc1nc(C)cc(N2CCCC2)n1,4.573%,21.54%,-5.381%,20%,3.704%
COc1cc(C)nc(N2CCN(C(=O)CCc3ccncc3)CC2)n1,2.689%,-3.994%,-0.1844%,1.613%,3.093%
CCN1CC2(CC1=O)CN(C(=O)c1ccco1)CCN(C(=O)C(C)C)C2 (stereo not given),0.8631%,0.7508%,-13.42%,12.9%,7.018%
COCC[C@]1(O)CCN(c2ncc(Cl)cc2F)C[C@H]1C,0%,4.759%,-11.27%,6.383%,4.046%
Cc1nn(-c2ccccc2)c2nc(C(C)(C)CN3CCN(C)CC3)[nH]c12,-9.709%,-1.514%,-10.07%,5.882%,1.005%
Cc1cc(CN2C[C@H]3CC[C@@H]2CN(Cc2c(C)noc2C)C3)ccc1F,-25.45%,-5.204%,-6.927%,27.4%,11.35%
CC(=O)N[C@@H](C)C(=O)NCc1cccnc1Oc1ccccc1F,-11.24%,-1.016%,7.664%,21.21%,6.349%
Cc1ccc(C(=O)NCC(c2cnn(C)c2)N(C)C)c(O)c1 (stereo not given),3.874%,6.641%,-9.93%,19.57%,5%
CCN1C[C@H]2C[C@H](C(=O)NCc3cccnc3)[C@@H](C1)O2,-3.085%,1.831%,8.485%,4.511%,2.762%
c1ccc(CN2CCC(CCNc3ncnc4c3CCNCC4)C2)cc1 (stereo not given),0.1653%,0.1468%,-23.3%,12.24%,44%
COc1cccc(CC(=O)NC(C)c2nc3cccnc3n2C(C)C)c1 (stereo not given),-4.079%,-2.353%,3.702%,8.966%,9.886%
O=S(=O)(c1cccc(F)c1)N1C[C@@H]2COC[C@]2(COCC2CC2)C1,16.93% and 22.2%,10.22%,-13.55%,15.79%,-2.151%
COc1c(CNC2(c3ccc(Cl)cc3)CCC2)c(C)nn1C,9.153%,3.604%,-10.63%,15.49%,-1.657%
CCOc1ccccc1C(=O)NCCc1ccoc1,0.7663%,-1.978%,-23.65%,12.99%,4.848%
CCc1noc(C)c1C(=O)N1CCCC1c1c(C)nn(C)c1OC (stereo not given),-20.31%,-2.282%,6.631%,5.618%,2.256%
CCNC(=O)[C@@H]1C[C@@H](NC(=O)c2cccn2C)CN1CCCSC,7.593%,5.948%,8.532%,18.09%,11.06%
O=C1CCC2(CCNCC2)CN1CCCOc1cccnc1,6.112%,3.875%,-4.988%,19.18%,5.464%
CCN(C)c1ncnc2c1CCN(C(=O)c1ccno1)CC2,3.426%,0.5247%,3.879%,15.09%,1.622%
CC(C)N1C[C@H](NC(=O)c2coc(COc3cccc(F)c3)n2)[C@@H](O)C1,6.075%,-6.712%,1.558%,22.37%,8.696%
Cc1cnc(C(=O)NC(CN2CCCC2=O)c2ccccc2)cn1 (stereo not given),4.689%,-4.959%,-35.95%,17.86%,8.284%
O=C(NCCCn1nc2ccccn2c1=O)Nc1ccccc1,-9.662%,0.1412%,-27.78%,-6.14%,0.2907%
CC(C)(C)OC(=O)NCCNC(=O)c1ccc(-c2ccco2)[nH]c1=O,-22.47%,-7.768%,-83.67%,0.8772%,2.035%
Cc1nnc(N2CCN(C)C3(CCC(=O)N(CCO)CC3)C2)s1 (stereo not given),4.893%,-0.2366%,-20.24%,5.085%,1.463%
CCCN1CCC(c2nc3ccc(NCc4cccnc4)cn3n2)CC1,7.143%,-2.535%,-9.019%,12%,5.155%
O=C(O)c1nc(SCc2ccc(F)cc2)ncc1Br,2.179%,0.3163%,-4.689%,19.57%,11%
Cc1ccc(C(=O)NCc2ccnc(N(C)C)c2)c(C)c1,0.6818%,-4.023%,-21.37%,8.929%,8.646%
NC(=O)C1CCCN1C1CCN(C(=O)c2ccc3c(c2)OCO3)CC1 (stereo not given),5.14%,-2.562%,-17.59%,16.81%,4.867%
NS(=O)(=O)CCNC(=O)C1(c2ccc(Br)cc2)CC1,4.545%,0.08285%,-2.524%,16.04%,-2.51%
COC(C)(C)CC(C)NCc1cc(-c2ccco2)on1 (stereo not given),1.948%,-3.865%,-9.331%,14.75%,5.6%
CC(C)N1CCO[C@H]2CN(C(=O)c3ccc(N(C)C)cc3)C[C@H]21,1.416%,-3.356%,-3.556%,11.76%,3.825%
Cc1cc(NC(C)Cn2cccn2)n2nccc2n1 (stereo not given),-3.215%,1.207%,0.5522%,18.37%,4.103%
NC(=O)C1CN(c2ccc(F)cc2)CCN1 (stereo not given),3.883%,-7.4%,-18.67%,4.286%,4.215%
CCNC(=O)C1(CC2CC(c3ccccc3OC)=NO2)CCOCC1 (stereo not given),3.163%,-4.116%,3.692%,20%,8.209%
CN(C)S(=O)(=O)N(C)C(c1cccnc1)c1ccc(F)c(F)c1 (stereo not given),-1.29%,1.188%,2.596%,11.84%,2.463%
O=C(Nc1cccnc1)[C@H]1C[C@@H]2CN(Cc3ccc(F)cc3)C[C@H]1O2,0%,1.876%,-5.18%,10%,1.961%
CCc1cc(CNC(=O)N2CCC(Cc3cnn(C)c3)C2)on1 (stereo not given),-0.2558%,-4.056%,-35.73%,18.35%,5.294%
NC(=O)C1CCCN1C(=O)c1cc(C2CC2)nc2ccc(F)cc12 (stereo not given),-3.037%,-3.482%,-12.02%,0.885%,2.212%

For reference, 3 entries once more:

* COC(C)(C)CC(C)NCc1cc(-c2ccco2)on1 (stereo not given) : CoaBC: 1.948%; MtTrpRS: -3.865%; ClpP1P2: -9.331%; LiHisRS: 14.75%; TcHisRS: 5.6%
* Cc1cc(CN2C[C@H]3CC[C@@H]2CN(Cc2c(C)noc2C)C3)ccc1F : CoaBC: -25.45%; MtTrpRS: -5.204%; ClpP1P2: -6.927%; LiHisRS: 27.4%; TcHisRS: 11.35%
* CCCN1CCC(c2nc3ccc(NCc4cccnc4)cn3n2)CC1 : CoaBC: 7.143%; MtTrpRS: -2.535%; ClpP1P2: -9.019%; LiHisRS: 12%; TcHisRS: 5.155%